Reference: PMC10163288
The list shows a part of the results.

B1: il2ra_site1_2b5i_normal_mot_HHH_b2_04910_000000118_0001_1_19_H_._HHH_b1_07445_0001_0000100004_0000001_0_af2pred_dldesign_0_af2pred (protein)
chain: SSSSSKGKELRELVKKADKLFQEGKPEEAKKLLEEALELAKELGSTLWVKYLESMLKQLESSSSS
B2: il2ra_site2_2erj_sap_17_mot_HHH_b2_05264_af2_000000057_0001_44_57_H_._HHH_b2_06405_0001_0000200023_0000001_0_0001 (protein)
chain: SSSSEEERIEELYELIEELLKRGDVREVNKVLTEILRLVEEIGDPEVHKLAWEALRLSVERHSSS
B3: il2ra_site1_2b5i_sap_10_mot_HHH_b1_00095_000000042_0001_1_14_H_._HHH_b2_06882_af2_0001_0000100002_0000001_0_0001_af2pred_dldesign_0_af2pred (protein)
chain: SSPLLEFARKLEEKIILAEEQENAELAQEALDEAEKRLKEHPNDKLIKYIAEKAKEVLKELLESS
B4: il2ra_site2_2erj_sap_19_mot_HHH_b1_08162_af2_000000254_0001_40_56_H_._HHH_b1_03799_0001_0000100002_0000001_0_0001 (protein)
chain: SSSSDRLHELYELANELTRLVAEGDEEKVEEVAQEVKKLAEELDSPNAEEIVENLERLLDSSSSS
B5: il2ra_site2_2erj_normal_mot_HHH_b1_05749_af2_000000086_0001_23_39_H_._HHH_b2_04008_0001_0000400022_0000001_0 (protein)
chain: SSSSDKEESERALRIVYEIASKFGLDHELAHHLAEIAYELLEQGVSEEELREILEEFAEEYSSSS
B6: il2ra_site2_3nfp_sap_19_mot_HHH_b1_06589_000000230_0001_37_50_H_._HHH_b2_03432_0001_0000100006_0000001_0_0001 (protein)
chain: SSSSSSKAEEYVEAALELAKRTPDEEIRERHLELARLAAESQNDPELERLVEEVKEELGSSSSSS
B7: il2ra_site2_2erj_sap_18_mot_HHH_b1_04373_af2_000000118_0001_18_33_H_._HHH_b1_03962_0001_0000200008_0000001_1_0001 (protein)
chain: SSSSTEETREALEAAAEKDAKKDPEKARLYLELAERFAKRSGDEEALERIEELLEELREGSSSSS
B8: il2ra_site2_2erj_sap_20_mot_HHH_b1_06364_af2_000000268_0001_41_57_H_._HHH_b1_06576_0001_0000800021_0000001_0_0001_af2pred_0001_af2pred (protein)
chain: SSSSSEEEEVEKLLEEVKRLEKEGDEERAKKVLFEAALLALEINNEELEKEIERLAKELRSSSSS
B9: il2ra_site1_3nfp_sap_13_mot_HHH_b1_01159_af2_000000107_0001_1_20_H_._HHH_b2_04217_0001_0000600032_0000001_0_0001_af2pred_0001_af2pred (protein)
chain: SSSSDALREVLELIKEAREAFKNGNPEEAKKILEEALKIAEERNSPHLRRFLEATLRLIRSSSSS
B10: il2ra_site1_2b5i_normal_mot_HHH_b1_00095_000000044_0001_1_14_H_._HHH_eva_0532_0001_0000100001_0000001_0_af2pred_dldesign_0_af2pred (protein)
chain: SSSSSSAARRAIEEAIEEAEEAGDEEAVAELRELLAQLDAGKISPREALLRANALLKELESSSSS
B11: il2ra_site2_3nfp_normal_mot_HHH_b1_05627_af2_000000038_0001_43_56_H_._HHH_b1_04509_0001_0000700040_0000001_0 (protein)
chain: SSSSDKAERYLRVALLLLRRAAEHNNPELVRSHAEAAAALAEALRDPEVLREIEEILEELSSSSS
B12: il2ra_site2_3nfp_normal_mot_HHH_b2_07186_000000286_0001_42_55_H_._09c2afe89fb4cbada1505b3a46965288_0001_af2_0001_0000300039_0000001_0 (protein)
chain: GPEEKLEELEERAGDPRFAIYALLQELILELGNPREARELLREVIEKLFNVPPEEAERLLREASQ
B13: il2ra_site1_2b5i_normal_mot_HHH_b1_02271_000000068_0001_1_16_H_._HHH_b2_04832_af2_0001_0000100004_0000001_1_af2pred_dldesign_0_af2pred (protein)
chain: SSSSSEEEVRRLLEEARRLLEAGKRREALKLLEEAHKLAGALENEELIAEVEALFKEASKSSSSS
B14: il2ra_site1_1z92_normal_mot_01209686ea234b34325f918445e6eade_0001_af2_000000154_0001_18_33_H_._92259d4fafaaaac0c6a0b9836689a3e9_0001_0001_0000100010_0000001_0_a … (protein)
chain: SEALEKSIKQAEEMGIPPRQVVRAVLRNLERDLGDPEEAKELLEEVLEKLLGDPEEARELVERAE
B15: il2ra_site2_3nfp_sap_24_mot_HHH_b2_06039_000000024_0001_38_52_H_._ems_3hC_444_0001_af2_0001_0000300021_0000001_0_0001 (protein)
chain: SSSSSDDHEVYERVVELLKEANKIDDPEEREEVLREAEELAREARSEVLRRSVEDVAKANSSSSS
B16: il2ra_site2_2erj_normal_mot_HHH_b1_04373_af2_000000118_0001_18_33_H_._HHH_b2_05629_af2_0001_0000100008_0000001_0 (protein)
chain: SSSSSDVEEEVRRLLEEAEELREEGDLEEVYRLAVEALHLASKNQDQELIELVAKVAEELSSSSS
B17: il2ra_site2_3nfp_sap_29_mot_HHH_b2_03587_000000143_0001_18_35_H_._HHH_b2_00779_af2_0001_0000400020_0000001_0_0001 (protein)
chain: SSSSDERAKKIVENALRALEIALRRGDEELVELTEEYLRAAILLHNDEEAEELLEELRRKYSSSS
B18: il2ra_site2_3nfp_sap_19_mot_HHH_b1_06699_000000048_0001_23_40_H_._ems_3hC_59_0001_0000100006_0000001_0_0001_af2pred_0001_af2pred (protein)
chain: SSSSSDAAEEAEELAEEARHVEDPEERERILRKAAELAYRARDHEVFAEIHLVIEELERSSSSSS
B19: il2ra_site2_3nfp_sap_10_mot_HHH_b1_03612_af2_000000124_0001_42_57_H_._HHH_b2_00467_af2_0001_0000300010_0000001_1_0001 (protein)
chain: SSSSDEAEEYLRAALALLEELLEQNDPEFARKLAEILARAAESAEDEEVLEAAEEILEELSSSSS
B20: il2ra_site1_3nfp_normal_mot_HHH_b1_08723_000000044_0001_1_15_H_._HHH_b1_04612_af2_0001_0000400024_0000001_0_af2pred_0001_af2pred_1 (protein)
chain: SSSSSEREELEELLRQAQELFENGNPEEAQKVLEEAIELAEELNNEAMLKFLEAALRAAKSSSSS
B21: il2ra_site1_2b5i_sap_15_mot_1dae16775e8f4074d71d019417416b97_0001_af2_000000275_0001_1_12_H_._HHH_b2_05950_0001_0000100008_0000001_0_0001_af2pred_dldesign_0_af2 … (protein)
chain: SSSSDPRAELERIVDEIQEKYGLNEGARRILRELADRALEEGRSLEEIRKELEKIAEHLKSSSSS
B22: il2ra_site2_2erj_sap_32_mot_3c6e6c7a1689b1ff61bc13c65436e505_0001_1_af2_000000132_0001_16_32_H_._ems_3hM_3349_0001_0000100013_0000001_0_0001 (protein)
chain: SSSSDVEELLKEIEELLERGDLERAIHLLTEAVRLALERKDDELIRKVWELMRLIFELAESSSSS
B23: il2ra_site1_2b5i_normal_mot_HHH_b2_04353_af2_000000128_0001_1_17_H_._HHH_b1_07800_af2_0001_0000800040_0000001_0 (protein)
chain: SSSSDEAFEEVDELFRRASELFRNGNPEEARELIEEALEIAERNNDESARRDLERFLELLKSSSS
B24: il2ra_site2_3nfp_normal_mot_HHH_b2_05717_000000156_0001_42_56_H_._HHH_b1_01959_af2_0001_0000400021_0000001_0 (protein)
chain: SSSSNERAEEFVRLALWTLKAALEEGDEEVVRRIREFLRSAIHFHEDEEAEELLRELEEEYSSSS

target: il2ra, P01589; experiment: yeast display titration

Apparent Kd, inactive:
B1 no binding seen
B2 no binding seen
B3 no binding seen
B4 no binding seen
B5 no binding seen
B6 no binding seen
B7 no binding seen
B8 no binding seen
B9 no binding seen
B10 no binding seen
B11 no binding seen
B12 no binding seen
B13 no binding seen
B14 no binding seen
B15 no binding seen
B16 no binding seen
B17 no binding seen
B18 no binding seen
B19 no binding seen
B20 no binding seen
B21 no binding seen
B22 no binding seen
B23 no binding seen
B24 no binding seen

Random excerpt: two entries already listed
Apparent Kd, inactive:
B23 no binding seen
B3 no binding seen
